The results in this text go back to article doi:10.1101/842682.

The chains behind the UniProt entries cited, without tags or fusion partners. Residues count along the entry.
UniProt A2AUM9, residues 1075-1383: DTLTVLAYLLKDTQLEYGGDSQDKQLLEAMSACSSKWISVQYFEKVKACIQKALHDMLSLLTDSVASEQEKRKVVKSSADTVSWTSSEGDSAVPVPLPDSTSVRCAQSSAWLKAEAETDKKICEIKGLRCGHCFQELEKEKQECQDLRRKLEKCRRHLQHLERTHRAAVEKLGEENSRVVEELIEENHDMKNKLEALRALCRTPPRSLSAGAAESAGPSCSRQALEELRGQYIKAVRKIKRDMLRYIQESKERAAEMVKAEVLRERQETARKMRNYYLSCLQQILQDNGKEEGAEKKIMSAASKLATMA

These are yes or no findings as the source states them, for the method shown. In cells and extracts the contact can be indirect. Some binding calls cover weakened binding; strength is not graded here. Where a sequence is shown, tags or fusion partners need not be part of it.

The test has as its target T1, His-Cep63 (UniProt Q3UPP8).
T1 sequence: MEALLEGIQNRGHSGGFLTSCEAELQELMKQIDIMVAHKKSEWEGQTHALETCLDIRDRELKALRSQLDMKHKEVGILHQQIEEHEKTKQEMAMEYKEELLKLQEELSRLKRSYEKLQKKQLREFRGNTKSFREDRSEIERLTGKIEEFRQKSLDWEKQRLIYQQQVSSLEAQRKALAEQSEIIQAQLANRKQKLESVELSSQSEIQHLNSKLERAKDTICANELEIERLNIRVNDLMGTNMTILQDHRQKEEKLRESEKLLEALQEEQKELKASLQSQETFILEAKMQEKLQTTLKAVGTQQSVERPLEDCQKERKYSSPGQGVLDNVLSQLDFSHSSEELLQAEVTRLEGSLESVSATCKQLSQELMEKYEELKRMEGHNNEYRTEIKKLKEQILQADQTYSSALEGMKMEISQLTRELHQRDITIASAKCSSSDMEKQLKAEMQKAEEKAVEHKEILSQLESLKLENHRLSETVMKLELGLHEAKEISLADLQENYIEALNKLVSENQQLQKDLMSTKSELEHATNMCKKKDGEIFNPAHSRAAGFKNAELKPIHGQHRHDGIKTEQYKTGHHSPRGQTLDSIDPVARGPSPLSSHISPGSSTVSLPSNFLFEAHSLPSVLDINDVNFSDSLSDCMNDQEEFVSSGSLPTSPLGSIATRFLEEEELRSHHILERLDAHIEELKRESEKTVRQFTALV
Kind of test: pull-down.

As for “Cep152M (from UniProt A2AUM9 1075-1383) (domain or fragment)”, the binding result is listed as “binds”.
